Common to all, as to details: yeast three-hybrid, YBZ-1, SC-Leu-His + 0.5 mM 3-AT, 4 days
Experiment [1] has as its target T1, PUM1 PUF domain R2-VFQ R3-THE R4-TFR N899V + Y900F + C935T + R936H + Q939E + N971T + H972F + Q975R (UniProt Q14671).
T1 sequence: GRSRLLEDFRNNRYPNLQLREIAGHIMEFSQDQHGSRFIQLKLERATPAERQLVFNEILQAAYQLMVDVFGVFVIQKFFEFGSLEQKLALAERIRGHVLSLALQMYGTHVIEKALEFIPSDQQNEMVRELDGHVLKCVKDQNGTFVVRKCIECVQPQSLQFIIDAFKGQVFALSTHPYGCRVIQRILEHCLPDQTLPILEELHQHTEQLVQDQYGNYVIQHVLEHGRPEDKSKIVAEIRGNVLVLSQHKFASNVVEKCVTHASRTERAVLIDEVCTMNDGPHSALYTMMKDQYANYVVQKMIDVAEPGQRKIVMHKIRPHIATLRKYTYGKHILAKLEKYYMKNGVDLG

The target of experiment [2] is T2, PUM1 PUF domain R3-THE R4-TFR R7-NPG C935T + R936H + Q939E + N971T + H972F + Q975R + S1079N + N1080P + E1083G (UniProt Q14671).
T2 sequence: T1 sequence with V72N, F73Y, S252N, N253P, E256G

The target in experiment [3] is T3, PUM1 PUF domain R3-THE R4-TFR R7-NPG C935T + R936H + Q939E + N971T + H972F + Q975R + S1079N + N1080P + E1083G (Homo sapiens) (UniProt Q14671).
T3 sequence: T1 sequence with V72N, F73Y, S252N, N253P, E256G

Experiment [4] deals with T4, PUM1 PUF domain R5-PHQ R6-SWD C1007P + R1008H + N1043S + Y1044W + Q1047D (UniProt Q14671).
T4 sequence: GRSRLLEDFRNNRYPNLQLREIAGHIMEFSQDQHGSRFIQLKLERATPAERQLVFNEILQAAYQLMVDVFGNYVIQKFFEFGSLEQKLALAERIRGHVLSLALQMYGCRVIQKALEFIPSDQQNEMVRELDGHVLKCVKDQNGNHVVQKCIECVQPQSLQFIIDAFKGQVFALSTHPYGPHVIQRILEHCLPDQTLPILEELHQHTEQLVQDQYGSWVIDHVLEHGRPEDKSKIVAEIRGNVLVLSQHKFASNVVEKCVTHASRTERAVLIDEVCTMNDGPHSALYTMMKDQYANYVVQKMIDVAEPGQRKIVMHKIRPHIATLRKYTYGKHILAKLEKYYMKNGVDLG

In experiment [5] the target is T5, PUM1 PUF domain R6-SWD R7-NPG N1043S + Y1044W + Q1047D + S1079N + N1080P + E1083G (Homo sapiens) (UniProt Q14671).
T5 sequence: T4 sequence with P180C, H181R, S252N, N253P, E256G

In experiment [6] the target is T6, PUM1 PUF domain R6-SWD R7-NPG N1043S + Y1044W + Q1047D + S1079N + N1080P + E1083G (UniProt Q14671).
T6 sequence: T4 sequence with P180C, H181R, S252N, N253P, E256G

Changes are numbered by the printed parent chain. This is one part of the list. For some assays here: At the low end of the ranking, values are background and their order means little. For some assays here: Construct or isoform of the protein are uncertain.

For “GGCUAGAACUAGUGGAUCCCCCGGCGCCCGGCGGCUCGAGCCCGGGUAAGUUUUCGCGGUCUGCAUGCCGCCGGGCGCCAUGCCUGCAGGUCGACUCUAGAAAACAUG”, the binding signal (log2 enrichment (interaction score)) was -5.45 in experiment [1] and -2.3 in experiment [2].
In the same order, the values of “GGCUAGAACUAGUGGAUCCCCCGGCGCCCGGCGGCUCGAGCCCGGGUAAGAGCGCGAAGUCUGCAUGCCGCCGGGCGCCAUGCCUGCAGGUCGACUCUAGAAAACAUG” are -5.12 and -2.25.
Turning to “GGCUAGAACUAGUGGAUCCCCCGGCGCCCGGCGGCUCGAGCCCGGGUAAGUCAGAGGCGUCUGCAUGCCGCCGGGCGCCAUGCCUGCAGGUCGACUCUAGAAAACAUG”, the binding signal (log2 enrichment (interaction score)) in experiment [1] was -5.64; in experiment [3] it was below -1.32.
As for “GGCUAGAACUAGUGGAUCCCCCGGCGCCCGGCGGCUCGAGCCCGGGUAAGUUGACAAGGUCUGCAUGCCGCCGGGCGCCAUGCCUGCAGGUCGACUCUAGAAAACAUG”, the binding signal (log2 enrichment (interaction score)) in experiment [1] is -5.34; in experiment [2], -2.46.
For “GGCUAGAACUAGUGGAUCCCCCGGCGCCCGGCGGCUCGAGCCCGGGUAAGUAGACGCGGUCUGCAUGCCGCCGGGCGCCAUGCCUGCAGGUCGACUCUAGAAAACAUG”, the binding signal (log2 enrichment (interaction score)) is -4.92 in experiment [1] and -1.75 in experiment [3].
In the case of “GGCUAGAACUAGUGGAUCCCCCGGCGCCCGGCGGCUCGAGCCCGGGUAAGUUUGAAUCGUCUGCAUGCCGCCGGGCGCCAUGCCUGCAGGUCGACUCUAGAAAACAUG”, the figures for the binding signal (log2 enrichment (interaction score)) in experiment [1], in experiment [2] and in experiment [4] were -6.01, -3.18 and -6.56, respectively.
In the case of “GGCUAGAACUAGUGGAUCCCCCGGCGCCCGGCGGCUCGAGCCCGGGUAAGUUGAUGACGUCUGCAUGCCGCCGGGCGCCAUGCCUGCAGGUCGACUCUAGAAAACAUG”, the binding signal (log2 enrichment (interaction score)) was -5.37 in experiment [1] and -2.44 in experiment [2].
In the case of “GGCUAGAACUAGUGGAUCCCCCGGCGCCCGGCGGCUCGAGCCCGGGUAAGUUUACACAGUCUGCAUGCCGCCGGGCGCCAUGCCUGCAGGUCGACUCUAGAAAACAUG”, the binding signal (log2 enrichment (interaction score)) is -5.53 in experiment [1], -2.03 in experiment [2] and -6.93 in experiment [4].
In the case of “GGCUAGAACUAGUGGAUCCCCCGGCGCCCGGCGGCUCGAGCCCGGGUAAGUGUAACAAGUCUGCAUGCCGCCGGGCGCCAUGCCUGCAGGUCGACUCUAGAAAACAUG”, the figures for the binding signal (log2 enrichment (interaction score)) in experiment [1], in experiment [3] and in experiment [4] were -5.71, -1.74 and below -8.42, respectively.
For the sequence “GGCUAGAACUAGUGGAUCCCCCGGCGCCCGGCGGCUCGAGCCCGGGUAAGGUUGCCAUGUCUGCAUGCCGCCGGGCGCCAUGCCUGCAGGUCGACUCUAGAAAACAUG”, the binding signal (log2 enrichment (interaction score)) is -5.48 in experiment [1] and -2.02 in experiment [2].
As for “GGCUAGAACUAGUGGAUCCCCCGGCGCCCGGCGGCUCGAGCCCGGGUAAGCCUACCUUGUCUGCAUGCCGCCGGGCGCCAUGCCUGCAGGUCGACUCUAGAAAACAUG”, the binding signal (log2 enrichment (interaction score)) in experiment [1] was -6.56; in experiment [3], below -0.53; in experiment [5] it was -1.01.
On to “GGCUAGAACUAGUGGAUCCCCCGGCGCCCGGCGGCUCGAGCCCGGGUAAGGCUACAAGGUCUGCAUGCCGCCGGGCGCCAUGCCUGCAGGUCGACUCUAGAAAACAUG”, for which the binding signal (log2 enrichment (interaction score)) was -5.57 in experiment [1] and -2.59 in experiment [2].
As for “GGCUAGAACUAGUGGAUCCCCCGGCGCCCGGCGGCUCGAGCCCGGGUAAGAGGCAAGCGUCUGCAUGCCGCCGGGCGCCAUGCCUGCAGGUCGACUCUAGAAAACAUG”, the binding signal (log2 enrichment (interaction score)) in experiment [1] was -5.73; in experiment [2], -3.12; in experiment [4], -8.3.
As for “GGCUAGAACUAGUGGAUCCCCCGGCGCCCGGCGGCUCGAGCCCGGGUAAGAGAAAAACGUCUGCAUGCCGCCGGGCGCCAUGCCUGCAGGUCGACUCUAGAAAACAUG”, the binding signal (log2 enrichment (interaction score)) is -6.01 in experiment [1], below -7.54 in experiment [4] and -2.39 in experiment [6].
Take “GGCUAGAACUAGUGGAUCCCCCGGCGCCCGGCGGCUCGAGCCCGGGUAAGAGGAGAGCGUCUGCAUGCCGCCGGGCGCCAUGCCUGCAGGUCGACUCUAGAAAACAUG”: the binding signal (log2 enrichment (interaction score)) is -5.7 in experiment [1], -8.09 in experiment [4] and -0.61 in experiment [5].
“GGCUAGAACUAGUGGAUCCCCCGGCGCCCGGCGGCUCGAGCCCGGGUAAGUGGGAGGCGUCUGCAUGCCGCCGGGCGCCAUGCCUGCAGGUCGACUCUAGAAAACAUG”: the binding signal (log2 enrichment (interaction score)) in experiment [1] is -4.99; in experiment [4] it was -7.44; in experiment [5], -1.19.
Regarding “GGCUAGAACUAGUGGAUCCCCCGGCGCCCGGCGGCUCGAGCCCGGGUAAGUUGCAGGAGUCUGCAUGCCGCCGGGCGCCAUGCCUGCAGGUCGACUCUAGAAAACAUG”, the binding signal (log2 enrichment (interaction score)) is -5.79 in experiment [1] and below -7.71 in experiment [4].
As for “GGCUAGAACUAGUGGAUCCCCCGGCGCCCGGCGGCUCGAGCCCGGGUAAGCUCAGACAGUCUGCAUGCCGCCGGGCGCCAUGCCUGCAGGUCGACUCUAGAAAACAUG”, the binding signal (log2 enrichment (interaction score)) in experiment [1] is -5.68; in experiment [5], -1.65.

Values taken from paper PMC8384837.
